# Laboratory results reported in patent publication US9597408B2, “Peptide-mediated non-covalent delivery of active agents across the blood-brain barrier” (Mayo Foundation for Medical Education and Research, priority 2009, dated 2017).
# Part of at least one peptide drawing is inferred or uncertain, most often the ends. Where no end group is shown, it is not given here.
# Tested on: amyloid plaques
# Test: Labeling of amyloid plaques by antibody delivered via K16ApoE in mice which model for Alzheimer's disease
# Format: in vivo
# Conditions: 4G8 antibody against amyloid beta peptide delivered via K16ApoE; FIG. 5
sequence,measurement,value
"KKKKKKKKKKKKKKKKLRVRLASHLRKLRKRLLRDA [K16ApoE, KKKKKKKKKKKKKKKKLRVRLASHLRKLRKRLLRDA]",labeling of amyloid plaques by the delivered antibody,labeled the amyloid plaques
